PubChem BioAssay AID504808 – Drosophila RNAi Screening Center – 2011

Screen: 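Fly genes required to hold E2F transcription in check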 (primary screen)
Cell system: Drosophila S2 cells
Reagents: long dsRNA against Drosophila genes
Read-out: 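Firefly luciferase driven by E2F sites, normalised to Renilla luciferase on the same minimal promoter, measured by plate reader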
Reading the numbers: E2F firefly: higher = more E2F reporter activity; Renilla normaliser: higher = more normaliser reporter signal
Active means: 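Called active if the normalised E2F reporter went up by over 50%; the cutoff is arbitrary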
In all, the deposit lists about 21,000 reagents; below is a random part of those with a known target gene and a result. Of all reagents, 18 (0.084%) were called active. 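Raw counts without plate normalisation, one of two replicates; the ratio scores behind the calls were not deposited.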 A number with no mark means an inactive call. Names joined by + are all predicted targets of the reagent. Reagent sequences are not shown. The record does not give: the amount of reagent, the time to read-out.

target gene	amplicon	E2F firefly, rep 1	Renilla normaliser, rep 1
CG31224	DRSC15272	50235	3225
CG31224	DRSC16290	76197	4254
CG14464	DRSC07760	1.10e5	4383
r-cup (ryder cup)	DRSC20475	1.31e5	7638
CG33493	DRSC10642	1.21e5	6622
CG13252	DRSC11700	1.48e5	7025
dmpd (dampened)	DRSC06092	2931	243
Fur2 (Furin 2)	DRSC19817	2.40e5	7446
beat-Vb (beaten path Vb)	DRSC12940	85924	2591
beat-Vb (beaten path Vb)	DRSC14844	49677	3884
beat-Vb (beaten path Vb)	DRSC14845	1.09e5	5010
CG9356	DRSC16476	63609	3669
Elba1 (Early boundary activity 1)	DRSC00276	1.59e5	5966
CG5787	DRSC02895	82192	4258
Gr97a (Gustatory receptor 97a)	DRSC13802	82730	2332
CG6136	DRSC15975	77877	3384
Polr3I (RNA polymerase III subunit I)	DRSC19922	1.73e5	6058
CG6980	DRSC16162	71966	3394
TTLL6A (Tubulin tyrosine ligase-like 6A)	DRSC06618	1.39e5	5019

Single entries from above.
Value for r-cup (ryder cup) [DRSC20475] under “Renilla normaliser, rep 1”: 7638
Value of TTLL6A (Tubulin tyrosine ligase-like 6A) [DRSC06618] under “Renilla normaliser, rep 1”: 5019
Entry for dmpd (dampened) [DRSC06092] under “E2F firefly, rep 1”: 2931
CG13252 [DRSC11700], Renilla normaliser, rep 1: 7025

The listing continues:
target gene	amplicon	E2F firefly, rep 1	Renilla normaliser, rep 1
Mt2 (Methyltransferase 2)	DRSC03374	1.11e5	4224
CG1703	DRSC19764	7774	932
c12.1	DRSC18750	87037	5805
CG15357	DRSC00387	1.65e5	5538
GluRIB + CG42509 (retired record)	DRSC10258	96145	4079
GluRIB + CG42509 (retired record)	DRSC11177	79494	3126
CG14022	DRSC02352	1.45e5	4812
DEF8 (differentially expressed in FDCP 8 homolog)	DRSC09840	78945	4234
CG31650	DRSC03140	1.01e5	4643
CG14840	DRSC14964	94599	5212
Opbp (Optix-binding protein)	DRSC04966	99873	4868
morgue (modifier of rpr and grim, ubiquitously expressed)	DRSC00264	98203	3671
UQCR-6.4 (Ubiquinol-cytochrome c reductase 6.4 kDa subunit)	DRSC06454	1.38e5	4867
CG34326 (retired record)	DRSC19165	86137	2374
pzg (putzig)	DRSC11848	1.15e5 (active)	146
